For 3 molecules, binding results are on record in patent publication US20100285022A1.

B1: human monoclonal antibody 1F12 (antibody, V domains shown)
VH: QVQLVQSESEVKKPGASVTVSCKPSGYTFNTYYIHWVRQAPGQGLEWMGVINPSGGSTTYTQRFQDRVTMTTDTSTNTIYMDLTSLRSDDTAMYYCVRGSNLLPHLWEWKPSHFDSWGQGTLVTVSS
VL: EIVLTQSPGTLSLSPGERATLSCRASQSITNNYLAWYQQKPGQAPRLLIYDSFSRATGIPERFSGSGSGTDFTLTISRLEPEDFAVYYCQHYVRSPLTFGPGTKVEIK
B2: human monoclonal antibody 1G1 (antibody, V domains shown)
VH: QVHLVQSGVEVKKPGASVRVSCKASGYTFATYGITWVRQAPGRGLEWVGWITPYNDRTSYAQIFHGRVTMTTDTSTNTAYMELRSLRSDDTAMYYCARNHCNFYHDFWSGLDYWGQGTLVSVSS
VL: SFELTQPPSVSVSPGQTARITCSGDALPKQYVYWYQQKPGQAPVLVIYKTTERPSGIPERFSDSSSGTTVTLTISAAQAEDEADYYCQSVDSSGTYVFGIGTKVTVL
B3: human monoclonal antibody 2D10 (antibody, V domains shown)
VH: QVQLVQSGPEVKKPGASVRLSCKASGYVFTNYGVSWVRQAPGQGLEWMGWSSPYNGNTYYAQKLKARVTMTTDTSTNTAYMELRSLRSDDTAVYYCGRDMLGVVQAVAGPFDSWGQGTLVTVSS
VL: DTPMTQSPSSVSASVGDRVTISCRASQGISNSLAWYQQKLGKAPQLLIYAASSLQSGVPSRFSGSGSGTDFTLTISSLQPEDFATYYCQQTNTFPFTFGPGTKVEVR

Results are given in words; binding and its absence hold for the method and conditions named. Binding calls can cover weak binding; strength is not graded here.

In the assay the target is RSV G protein of strain B (Gb protein) (respiratory syncytial virus, strain B). Briefly: reactivity column of Table 1.
In the case of B1, the binding entry is given as “binds”.

Take B2: the binding entry is “binds”. For the molecule B3, the binding result is on record as “binds”.
